Test results published in patent US20250188080A1, “IMIDAZOLONYLQUINOLINE COMPOUNDS AND THERAPEUTIC USES THEREOF” (Merck Patent GmbH, priority 2019, published 2025).
Some results were stated once for a whole list of compounds, not compound by compound.

Experiment: Inversion temperature of the atropisomers in solution
Assay type: physicochemical

Row | SMILES | Inversion temperature of the atropisomers
1 | COc1cc2ncc3c(c2cc1-c1cn(C)nc1C)n(-c1c(F)cncc1OC)c(=O)n3C (single isomer, unassigned) [Compound 1, 8-(1,3-Dimethyl-1H-pyrazol-4-yl)-1-(Sa)-(3-fluoro-5-methoxy-pyridin-4-yl)-7-methoxy-3-methyl-1,3-dihydro-imidazo[4,5-c]quinolin-2-one] | more than 100 °C
2 | COc1cc2ncc3c(c2cc1-c1cn(C)nc1C)n(-c1c(F)cncc1OC)c(=O)n3C (single isomer, unassigned) [Compound 2, 8-(1,3-Dimethyl-1H-pyrazol-4-yl)-1-(Ra)-(3-fluoro-5-methoxy-pyridin-4-yl)-7-methoxy-3-methyl-1,3-dihydro-imidazo[4,5-c]quinolin-2-one] | more than 100 °C
